Among the data in PubChem BioAssay AID1347423 (Functional Genomics Laboratory (NCATS/FGL), 2020) are z-score values, retold here.

In all, about 52,000 sequences went through this assay and about 210 (0.4%) were called active.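 The calls were made as follows: active = gene whose silencing raises cell survival under the drug, median off-target-corrected z-score across its silencing RNAs 2 or more; inactive = the rest.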 The list shows a part of the results.

The nature of this experiment: Resistance to Poly (ADP-Ribose) Polymerase inhibitor: Gene Identification via Genome-wide siRNA Screen. The settings on record: mouse BRCA2 R2336H ES cells, olaparib, CellTiter-Glo viability; active compounds read high. The procedure, abridged:
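Genome-wide siRNA screen (3 siRNAs/gene, 20 nM) in mouse ES cells carrying hypomorphic BRCA2 R2336H; olaparib 500 nM added 48 h post-transfection, CellTiter-Glo viability 72 h later. Normalized to plate-median negative control; MAD z-scores, gene median, seed-adjusted.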
A general note: In ATP-based viability assays light output follows the ATP content of the culture.
In the case of GGACUUCUUGUUUCUUACATT against Olfr1140, the z-score is inactive: -1.12.

For CCGGUUACCAAUUGAUAAATT against Cspg6, the z-score is inactive: -0.911.

On to “CGUGUCAGAACUCGAUCUUTT against E130107N23Rik”, for which the z-score was inactive: 0.779.

As to GCCAGUCAUGUCCAAAGUATT against Hdac1, the z-score was inactive: -2.13.

As to GGGACUGUUUCAGCUAUACTT against H6pd, the z-score was inactive: -0.781.

Turning to “GGACUGGUGGACAUAUGAATT against 4632413K17Rik”, the z-score is inactive: -0.411.

On to GCUCUCACACCCUUAUGUATT against Sdfr1, for which the z-score was inactive: -1.45.

Consider GGAAAGUGAUUGUUGGAGCTT against Fpr-rs3, for which the z-score is inactive: -1.69.

For GGUCAAUUCGGAGGUCCAGTT against Zfp385, the z-score is inactive: -2.

With GCUUAUAAGAGUCUAUCUUTT against Stam, the z-score was inactive: 0.882.

As for GGAGAUAUCCAUCAAUAGUTT against Nbr1, the z-score was inactive: -0.0777.

As for GGGCUUCAUUAAGGACUGCTT against Freq, the z-score is inactive: -0.173.

For the sequence CCUAUGUAACACAAACAUUTT against Orc5l, the z-score is inactive: 0.535.

As for GGGUGUCUCCAUUUUUCCUTT against BC068281, the z-score was inactive: -0.955.

Turning to “GCAUGUGGCUAACUUCAAATT against 4933411G06Rik”, the z-score is inactive: 1.11.

With “CGCUCUCUCUACAAAGGAUTT against A230052G05Rik”, the z-score is inactive: -0.259.

Turning to GGACACAAUAUGUGAAGUATT against BC016423, the z-score is inactive: 0.193.

CCUUCUAUUCACUUUACCATT against V1rk1: the z-score is inactive: 1.77.

As for GGCCUUCAGAAAGUCCUUGTT against Car2, the z-score is inactive: -0.283.

UGUAUAGCUAUGACCCUGCTT against AI413582: the z-score is inactive: -1.33.

Regarding GGAUGUACAAGAAAAGUAUTT against Ccr3, the z-score is inactive: -0.616.

On to GGUUCCAAGAGACUGAAAGTT against LOC544763, for which the z-score was inactive: 0.842.

Take “CCGUUCUGGCACAGAACAGTT against A830005F24Rik”: the z-score was inactive: -0.54.

As for “GGUUAUCUAUGGUCGGAAGTT against 2610003J06Rik”, the z-score is inactive: 1.18.

Take GGAGUUUCUACGUGUAUGCTT against Tpra40: the z-score was inactive: 0.00753.

GCCAACGAGAUUUGUAACATT against Dr1: the z-score is inactive: 0.18.

With GGUGAAAAGUCCUGCCAAGTT against Nefh, the z-score is inactive: -0.961.

For CCCAAGAUGGUUUUAAGUUTT against Met, the z-score is inactive: -0.643.

For GGUGGGCUCAAGAACUUCUTT against MGC48079, the z-score was inactive: 0.656.

On to “GGUUAUAGAGCGAGCAGCUTT against 2600016B03Rik”, for which the z-score is inactive: 0.11.

With GCCAAGAGCACAUCUGCUATT against AI848100, the z-score is inactive: -0.907.

In the case of GGCUGAAGAUCACCAAGAATT against Neurl, the z-score was inactive: -3.41.

In the case of CGGAAUUAUGAUCAUUGAGTT against Bbx, the z-score is inactive: -2.25.

Regarding GGUCUUCAACCCUGUUUGGTT against Gpsm3, the z-score is inactive: 0.405.

For the sequence GGAGCAUGGUUUUAUAAUATT against Rims2, the z-score is inactive: -0.452.

Consider “GAGAUUUACUCUGGACAUUTT against D8Ertd354e”, for which the z-score is inactive: -0.781.

Turning to GGGAAGCUAGGCACUUCAUTT against Plk4, the z-score is inactive: 0.418.

Turning to “GGAAAUUGCAUGUGAAAUUTT against 5830434P21Rik”, the z-score was inactive: -1.7.

As to “GGACACAGGCCUAUAUUUUTT against 4933439F11Rik”, the z-score is inactive: 0.28.

Consider GGAGUCUAAGUUAUAAUCUTT against Gm169, for which the z-score was inactive: 1.05.

On to “CCGUGUGGAAAAUAAAUUATT against 1700013G24Rik”, for which the z-score was inactive: 1.5.

As for GGAUAAUAAUCACUACAUGTT against Mov10l1, the z-score was inactive: -1.34.

Consider CCAGACAUUGUCUUUAUGGTT against Xrn1, for which the z-score was inactive: -0.483.

As to “CCAGUAAAGUAGGUUUUCUTT against D830032G16Rik”, the z-score is inactive: 0.919.

As for GGCUGUGGUCAAGAUCAAGTT against Atp2b2, the z-score was inactive: 0.46.

In the case of CCAAGAUCACAUACCGUGATT against Acas2, the z-score is inactive: -0.0971.

Take GGAAGACAAAGAUUCUAGUTT against Abcc1: the z-score is inactive: -0.414.

As for GCCACCUCAAAUAACCGUCTT against Lat, the z-score is inactive: 0.617.

Consider GCGGAGUGUGAAACACUGATT against Gm631, for which the z-score is inactive: 0.284.

As for GGGUUAACUUUUACUAUGGTT against Olfr570, the z-score is inactive: 1.19.

GCUUUCAGCUAUUGGACCCTT against Kl: the z-score is inactive: 0.583.

Regarding GGUCUGUCUCCAGAUUGCUTT against Olfr56, the z-score is inactive: -1.13.

With “GGAUACAGGUUUGAGAUAUTT against 1810049K24Rik”, the z-score is inactive: 0.768.

As to GGCUCUUCCAACAGUUCUUTT against Grk1, the z-score is inactive: -0.959.

With GGCGGAAAAAGUGGAUAAUTT against Epim, the z-score is inactive: -1.32.

For GCAGUUCUACUCUUACACCTT against Xylt1, the z-score was inactive: -0.599.

In the case of GGUAGAUGACUUUGACAACTT against Tnfsf9, the z-score is inactive: 0.308.

Consider GGUCCCAACGAAGAAACCATT against Daf1, for which the z-score is inactive: -0.321.

As to GGGAAUUGCCAACUUGUUCTT against Olfr639, the z-score was inactive: 1.27.

Take CCACCCUGUAUGAAUUUCUTT against Dscr6: the z-score was inactive: -1.41.

“GGAUCUGUACCAUAGUGACTT against 2810489O06Rik”: the z-score is inactive: 0.249.

For GGGUACUGUAAAUUGGUCUTT against Kpna2, the z-score is inactive: -0.826.

For the sequence CCCUAAGAGUCACCAAAAUTT against Nos2, the z-score is inactive: -0.824.

Regarding GGAAACAAAGUCAAUGUGGTT against Cnn1, the z-score was inactive: 0.12.

Take GGCAUAUACAAGGUAUUCUTT against Olfr393: the z-score was inactive: 1.18.

As for GGAUAACUCAUUCAGAAUGTT against Capn7, the z-score is inactive: 0.234.

Turning to GUUUGAGUCUGGAGACGUGTT against Commd4, the z-score was inactive: -1.55.

Consider “GGACUCUGCUUCCAUACUGTT against 9430086K21Rik”, for which the z-score was inactive: -0.798.

Turning to GGUCGAGCCAAGAAUUUGUTT against Pigo, the z-score is inactive: 1.21.

For the sequence “GGAAAUCAGAGAAUACUUCTT against 5730414C17Rik”, the z-score was inactive: -0.0285.

Turning to GGACCAUAGAUGAGAAAAGTT against Rfrp, the z-score is inactive: 0.12.

As for GCACCCAUAAGUUCUUAUATT against Hif1an, the z-score is inactive: -0.772.

For the sequence GCAGCUGCACUAAAGAACGTT against Dlgh1, the z-score was inactive: 0.411.

As for GGAGCUAGUAUUGAGCAACTT against Rnh1, the z-score is inactive: 1.28.

On to GGAUCACAGUCUCUUCGGUTT against Fgf20, for which the z-score was inactive: -0.475.

For CGGAACAAUUCCAAGAAACTT against Isl2, the z-score is inactive: 0.324.

With GCCACAGUGACUAUACUAGTT against Cdh16, the z-score is inactive: 1.4.

Regarding “GCCUCUCCCUACGGUAAAUTT against 4933425A18Rik”, the z-score is inactive: 0.697.

In the case of GCAGGAUUUUCACCAACAGTT against Gh, the z-score was inactive: -1.63.

With GGAAUGCUUACACACCUCATT against Galns, the z-score was inactive: 0.34.

GGGAGAAAAAAUCCACGAGTT against Tubg1: the z-score was inactive: -1.39.

For GCGACGGAAGUCUUUAUUATT against LOC329416, the z-score is inactive: 0.264.

Turning to GGCCAAGAACUCUCUCAUGTT against Es2el, the z-score was inactive: 0.304.

As to GCUGAGAGUUAAUUGAGCATT against Abcg8, the z-score is inactive: 1.75.

Consider “CCCACAUGUCCCGUCUUAUTT against 4930429B21Rik”, for which the z-score was inactive: -2.73.

As for GCCAUAUACAGGUUCAAAGTT against Msh6, the z-score was inactive: 0.613.

Consider GGAUGUUACGAAGAAGAUUTT against Ash1l, for which the z-score was inactive: -0.231.

For the sequence GGACUGUUAACUCUUGGCGTT against Slc7a1, the z-score is inactive: 1.67.

For “GGCCAGGACACUCAAAAACTT against A030003A19Rik”, the z-score is inactive: 0.143.

Take GGUCAAAAUGACCAAGGAUTT against Cte1: the z-score is inactive: -1.86.

On to GGUCUUGCUGUUCGAAGAATT against Gsh1, for which the z-score is inactive: -1.15.

GCCUGUCACUUUCUGAUAATT against Tpm2: the z-score is inactive: -1.45.

On to “CGAGGUGAUUAAAGAGAUGTT against D630044F24Rik”, for which the z-score was inactive: 0.603.

Consider GCUAUUGUAACACCUCAGGTT against Lef1, for which the z-score is inactive: -1.48.

For the sequence GGAUCUUGUGUUGUAUAAATT against Etv3, the z-score was inactive: -0.0977.

For GGCAAUAGAAACUUUUGGUTT against V1rh1, the z-score is inactive: 0.759.

As to GCUCUCGUCACUGUGUUACTT against Paip2, the z-score was inactive: 0.0718.

Take GGACAAUAUAGGAUCAACATT against Kmo: the z-score is inactive: 0.118.

As for GGUGAAGUCUUACCUAUACTT against Aacs, the z-score is inactive: -0.387.

With GGAUUCUGUGAUUUGUCUATT against Tesp1, the z-score is inactive: -0.217.

Turning to CCUUCAUUGGUUAGCAUGUTT against Rbl2, the z-score is inactive: 1.6.

Turning to GCCGACCACAGUACAAGACTT against Bivm, the z-score was inactive: 0.997.

Consider GGCUCUAAUGUAAUGAAUCTT against Fgf10, for which the z-score was inactive: 0.576.

Regarding GGGACGGAGAAAAGCUUUUTT against Olfr419, the z-score was inactive: 0.731.

On to CCUCAUUCUGUAAAAGAGATT against Hpcal4, for which the z-score is inactive: 0.0828.
